# From PubChem BioAssay AID504834 (National Center for Advancing Translational Sciences (NCATS), 2011)
# Among all 320,000 compounds or so, about 22,000 (6.9%) were called active. Inconclusive results, whose numbers are uncertain, are shown with a selection of clear calls. Calls follow the shape of the dose curve; as a rule, active = well fitted inhibition curve with a large enough effect; inconclusive = small, poorly fitted or top-dose-only effect, or another doubt; inactive = no such curve, though single readings can be large or run the other way. Potencies of inconclusive entries are doubtful fits and often do not repeat.
# Test: Primary qHTS for delayed death inhibitors of the malarial parasite plastid, 96 hour incubation
# Settings: P. falciparum luciferase reporter growth; series mostly up to 28.7 µM
# Summary of the method: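 Parasite growth measured via integrated firefly luciferase reporter in P. falciparum. Infected erythrocytes at 2% hematocrit, 0.05% parasitemia final were treated 96 hours at 37 C under 5% CO2, and luminescence was read.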
# Potency is read from the fitted curve at half-maximal effect.
row,Structure (SMILES),Potency
1,CCN(CC)C(=O)COc1ccc2c3c(c(=O)oc2c1C)CCCC3,"inconclusive: 18.5 µM [inhibitor, single point]"
2,O=C(NCCCN1CCCC1=O)c1cn(-c2ccccc2)nc1-c1ccccc1,inactive
3,Cc1ccc(Nc2ncnc(-n3cccc3)n2)cc1Cl,inactive
4,C=CCn1c(CSCc2ccc(F)cc2)n[nH]c1=S,"inconclusive: 1.04 µM [inhibitor, partial curve]"
5,CC(C)(C)NC(=O)Nc1cccc(Cl)c1Cl,"inconclusive: 11.7 µM [inhibitor, single point]"
6,Clc1ccccc1C1NCc2ccccc2-n2cccc21 (stereo unspecified),"inconclusive: 18.5 µM [inhibitor, single point]"
7,O=C(Cn1c2[n+](c3ccc(C(F)(F)F)cc31)CCCCC2)Nc1ccc(Br)cc1,active: 10.4 µM
8,O=C(Cc1nnc(NC(=O)c2ccccc2)s1)N/N=C\c1ccc(O)c(O)c1,"inconclusive: 18.5 µM [inhibitor, single point]"
9,COc1ccc(/C=C\c2nc(O)c([N+](=O)[O-])c(=O)[nH]2)cc1O,inactive
10,COc1cc(CCCN2C(N)=NC[C@@H]2Cc2ccc(O)cc2)cc(OC)c1OC,active: 2.33 µM
11,COC(=O)C(O)(c1cn(C)c2ccccc12)C(F)(F)F (stereo unspecified),"inconclusive: 18.5 µM [inhibitor, single point]"
12,COc1ccc(S(=O)(=O)N2CCCCC2)cc1NC(=O)CCc1nc2ccccc2c(=O)[nH]1,"inconclusive: 8.28 µM [inhibitor, partial curve, poor fit]"
13,COc1ccc(C(=O)NCc2nnc(SCC(=O)c3ccc(F)cc3)n2C)cc1OC,"inconclusive: 11.7 µM [inhibitor, single point]"
14,CCn1c(C)csc1=NC(=O)c1ccccc1O,active: 1.65 µM
15,CC(C)COc1cccc(-c2cc(C(=O)N/N=C/c3ccncc3)c3ccccc3n2)c1,"inconclusive: 13.1 µM [inhibitor, single point]"
16,O=C(c1cnn2c(C(F)F)cc(C3CC3)nc12)N1CCOCC1,inactive
17,Cc1ccccc1-n1c(SCC(=O)Nc2ccccc2Cl)nc2n[nH]c(C)c2c1=N,inactive
18,CC(C)Nc1ccc(Cl)cc1[N+](=O)[O-],inactive
19,CC1Cc2ccccc2N1C(=O)c1nn(C)cc1Br (stereo unspecified),inactive
20,COc1ccc(CC(=O)Nc2cc(S(=O)(=O)N3CCCC3)ccc2Cl)c(OC)c1,active: 14.7 µM
21,CCCN1CCC(=O)N([C@H](CSc2ccc(Br)cc2)c2ccccc2)CC1,"inconclusive: 0.0828 µM [inhibitor, full curve, poor fit]"
22,CC(Cc1cccs1)NC(=S)Nc1ccc(F)cc1 (stereo unspecified),inactive
23,CCC(=O)c1c(NC(CC)CO)cc(C)oc1=O (stereo unspecified),inactive

row,Structure (SMILES),Potency
1,CC(C)[C@H](NS(=O)(=O)c1cccc(Cl)c1)C(=O)OCC(=O)NC(=O)CN1CCCC1=O,inactive
2,O=C(COC(=O)CNC(=O)c1ccc(Cl)c([N+](=O)[O-])c1)NC(=O)c1ccccc1,inactive
3,O=C1COc2ccc(S(=O)(=O)N3CCN(c4ccccc4)CC3)cc2N1,"inconclusive: 18.5 µM [inhibitor, single point]"
4,CCCc1ccc(S(=O)(=O)N/N=C\c2ccc3c(c2)OCO3)cc1,"inconclusive: 11.7 µM [inhibitor, single point]"
5,CC1CC(C)(C)CC2(C1)NC(=O)N(CC(=O)N1CCN(S(=O)(=O)c3cccs3)CC1)C2=O (stereo unspecified),"inconclusive: 18.5 µM [inhibitor, single point]"
6,COC(=O)[C@@]1(Cc2ccc(F)cc2)[C@H]2c3cc(C(=O)N(C)C)n(CCc4ccc(OC)c(Br)c4)c3C[C@H]2CN1C(=O)c1ccccc1,active: 5.86 µM
7,Fc1ccccc1NC(=S)N(CCN1CCCCCC1)Cc1cccs1,"inconclusive: 18.5 µM [inhibitor, single point]"
8,Cc1ccc(S(N)(=O)=O)cc1NC(=O)C(c1ccccc1)c1ccccc1,"inconclusive: 18.5 µM [inhibitor, single point]"
9,O=C(Nc1cc(C(F)(F)F)ccc1Cl)C(Sc1cccc[n+]1[O-])c1ccccc1 (stereo unspecified),"inconclusive: 9.28 µM [inhibitor, partial curve]"
10,CCOC(=O)c1c(C)[nH]c(C(=O)OCC(=O)NC2(C#N)CCCCC2)c1C,"inconclusive: 9.28 µM [inhibitor, partial curve]"
11,COc1ccc(C(=O)NCCCOc2cccc(NC(C)=O)c2)cc1,"inconclusive: 11.7 µM [inhibitor, single point]"
12,CCn1nnnc1SCC(=O)N1CCCc2ccccc21,"inconclusive: 4.15 µM [inhibitor, partial curve, poor fit]"
13,COc1ccccc1OCCCn1cc(C=O)c2ccccc21,inactive
14,CCc1nnc(NC(=O)CCC(=O)Nc2ccc(C)cc2)s1,"inconclusive: 18.5 µM [inhibitor, single point]"
15,COc1ccccc1CNC(=O)C(=O)Nc1nccs1,inactive
16,O=C(c1ccc(-n2nc(C(F)(F)F)c3c2CCCC3)cc1)N1CCOCC1,"inconclusive: 5.86 µM [inhibitor, partial curve]"
17,Cc1cccc(NS(=O)(=O)c2nnc(NC(=O)c3ccc(Cl)cc3)s2)c1,"inconclusive: 1.85 µM [inhibitor, partial curve, poor fit]"
18,COc1ccc(CCN(C)C2CCCN(C(=O)CCSC)C2)cc1OC (stereo unspecified),"inconclusive: 11.7 µM [inhibitor, single point]"
19,CCCCCc1ccc(-c2cn(Cc3ccc(C(=O)c4ccccc4)cc3)nn2)cc1,"inconclusive: 18.5 µM [inhibitor, single point]"
20,N/C(=N\OC(=O)c1cccc([N+](=O)[O-])c1)c1ccccn1,"inconclusive: 16.5 µM [inhibitor, single point]"
21,CNC(=O)CN(c1ccc(C23CC4CC(CC(C4)C2)C3)cc1)S(C)(=O)=O,inactive
22,COc1ccc(CCN2C(=O)C(C)=C(C)C2=O)cc1OC,"inconclusive: 18.5 µM [inhibitor, single point]"
23,N#Cc1ccccc1NS(=O)(=O)c1cc2c3c(c1)CCC(=O)N3CCC2,inactive

# Fetched by compound from above (2):
row,Structure (SMILES),Potency
16,O=C(c1ccc(-n2nc(C(F)(F)F)c3c2CCCC3)cc1)N1CCOCC1,"inconclusive: 5.86 µM [inhibitor, partial curve]"
22,COc1ccc(CCN2C(=O)C(C)=C(C)C2=O)cc1OC,"inconclusive: 18.5 µM [inhibitor, single point]"
